Record: PubChem BioAssay AID504786 (Drosophila RNAi Screening Center, 2011)
Test: 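Positive regulators of HIF-driven reporter output in Drosophila cells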 (primary screen). Cells: Drosophila S2 cells with a stable HIF luciferase reporter. Reagent: long dsRNA against Drosophila genes, about 0.2 µg dsRNA per well of a 384-well plate. Time to read-out: three days of knock-down, then 20 h of DFO before reading. Treatment: desferrioxamine (DFO) at 100 µM, an iron chelator that mimics hypoxia, for 20 h. Read-out: 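Firefly luciferase driven by the mouse ldh-a hypoxia-response element, measured after 20 h of 100 µM DFO; z-scores per plate, higher means more signal lost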. Reading the numbers: z-score: higher = stronger loss of HIF reporter signal.
The deposit covers about 21,000 reagents; below is a random part of those with a known target gene and a result. 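Primary screen; positive scores mean lost reporter signal, so the sign may be inverted from the usual convention.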 Names joined by + are all predicted targets of the reagent. Not all columns of the deposit are shown.

CG4757 (GeneID 41330) [DRSC14130] → z-score, replicate 1: -0.2
Vha16-1 (GeneID 44307) [DRSC05020] → z-score, replicate 1: -0.3
CG3679 (GeneID 32591) [DRSC19346] → z-score, replicate 1: -0.1
CG15115 (GeneID 37192) [DRSC06537] → z-score, replicate 1: -1.1
CG5550 (GeneID 36883) [DRSC06943] → z-score, replicate 1: 0
CG32333 (GeneID 38142) [DRSC08627] → z-score, replicate 1: -0.3
CG32333 (GeneID 38142) [DRSC08629] → z-score, replicate 1: -0.2
dyw (GeneID 31252) [DRSC18228] → z-score, replicate 1: -0.3
Pgls (GeneID 32013) [DRSC19769] → z-score, replicate 1: -0.2
mei-S332 (GeneID 37523) [DRSC04704] → z-score, replicate 1: -0.1
RpS29 + snoRNA:Psi18S-1275 [DRSC16433] → z-score, replicate 1: 6.3
CAH1 + Adat1 [DRSC02009] → z-score, replicate 1: -0.4
CG2127 (GeneID 35811) [DRSC06821] → z-score, replicate 1: -0.3
Septin5 (GeneID 43990) [DRSC06843] → z-score, replicate 1: -0.3
Ubr3 (GeneID 31713) [DRSC17987] → z-score, replicate 1: -0.1
Ubr3 (GeneID 31713) [DRSC17997] → z-score, replicate 1: -0.1
NPFR (GeneID 40754) [DRSC12173] → z-score, replicate 1: -0.2
Der-2 (GeneID 42005) [DRSC15021] → z-score, replicate 1: -0.5
CG8187 (GeneID 36720) [DRSC07099] → z-score, replicate 1: -0.2
CG14693 (GeneID 41299) [DRSC14916] → z-score, replicate 1: -0.3
CG1607 (GeneID 43707) [DRSC15130] → z-score, replicate 1: -0.3
HP1e (GeneID 41108) [DRSC16379] → z-score, replicate 1: -0.3
Klp10A (GeneID 32049) [DRSC19601] → z-score, replicate 1: -0.3
Ctns (GeneID 42723) [DRSC15175] → z-score, replicate 1: -0.1
RpS17 (GeneID 39088) [DRSC11271] → z-score, replicate 1: 6
CG32198 (GeneID 317909) [DRSC09553] → z-score, replicate 1: -0.4
CG31525 (GeneID 318782) [DRSC12004] → z-score, replicate 1: -0.3
CG10444 (GeneID 37294) [DRSC05990] → z-score, replicate 1: -0.3
CG17047 (GeneID 36478) [DRSC06648] → z-score, replicate 1: -0.4
mor (GeneID 41942) [DRSC15378] → z-score, replicate 1: 5.3
Pex19 (GeneID 34630) [DRSC02839] → z-score, replicate 1: -0.2
Usf (GeneID 31384) [DRSC18129] → z-score, replicate 1: -0.3
eEF1delta (GeneID 34363) [DRSC02790] → z-score, replicate 1: -0.3
Irp-1A (GeneID 42689) [DRSC16719] → z-score, replicate 1: -0.3
dyl (GeneID 38531) [DRSC08466] → z-score, replicate 1: -0.4
dyl (GeneID 38531) [DRSC08467] → z-score, replicate 1: -0.1
EMC5 (GeneID 35159) [DRSC02469] → z-score, replicate 1: -0.1
CG6865 (GeneID 40050) [DRSC10732] → z-score, replicate 1: -0.2
gkt (GeneID 33530) [DRSC00821] → z-score, replicate 1: -0.3
mRpL23 (GeneID 38302) [DRSC08307] → z-score, replicate 1: 1
